Reference: patent US20230146939A1, “TREATMENT FOR HUMAN CORONAVIRUS INFECTION” (THE ADMINISTRATORS OF THE TULANE EDUCATIONAL FUND, priority 2020, published 2023)
Read-outs that look alike come from different tables or passages of the source. Not every detail of the peptide structures is certain; ends, links or a residue may be inferred.

Legend:
[1] = cited from earlier work
SARS-CoV-2 [2] = type: in vivo; settings: visual inspection of the graph
SARS-CoV-2 [3] = type: in vivo; settings: out of 5 mice
[4] = system: hACE2, Cxcl10, integrin α5, integrin αv mRNA; type: in vivo, K18-hACE2 mice
[5] = system: SARS-CoV-2 infected VeroE6 cells; type: cell-based, African green monkey
neuro-inflammation = settings: post-stroke treatment; cited from earlier work
[6] = system: porcine hemagglutinating encephalomyelitis virus (PHEV); settings: mouse model, 0.8 mg/kg; cited from earlier work
[7] = system: SARS-CoV-2 infected VeroE6 cells; type: cell-based, African green monkey; settings: ATN-161 at 10 μM
SARS-CoV-2 [8] = type: in vivo; settings: for number of responders: n=5
integrin α5 mRNA = type: in vivo, C57BL/6J mice; settings: ATN-161 2 hours prior to exposure, 3 dpi; p<0.05

Ac-PHSCN-NH2 [ATN-161, Ac-PHSCN-NH2] [listing 1 of 2 here]
serum half-life ([1]; other subjects and administration routes): about 1 day | serum half-life ([1]; some subjects, i.v.): 3 to 5 h

Ac-PHSCN-NH2 [ATN-161, Ac-PHSCN-NH2] [listing 2 of 2 here]
Genomic-N viral load in lungs (SARS-CoV-2 [2]): lower | Sub genomic N viral load in lungs (SARS-CoV-2 [2]): lower | mice completely negative for SARS-CoV-2 protein (SARS-CoV-2 [3]; ATN-161 2 h group): 3 | mice negative for SARS-CoV-2 protein (responders) (SARS-CoV-2 [3]; ATN-161 48 h group): 2 | mice completely negative for SARS-CoV-2 protein (SARS-CoV-2 [3]; ATN-161 daily group): 3 | SARS-CoV-2-induced integrin α5 in lungs ([4]; ATN-responders, 1 mg/kg): inhibits | SARS-CoV-2-induced integrin αv in lungs ([4]; ATN-responders, 1 mg/kg, p<0.05): inhibits | hACE2 expression in lungs, omnibus one-way ANOVA ([4]; mouse, in vivo): not significant | SARS-CoV-2-induced Cxcl10 mRNA levels in lung ([4]; mouse, in vivo, 1 mg/kg): significantly lowered | integrin-α5 expression in lung, one-way ANOVA ([4]; pooled ATN-161-treated mice): not significant | integrin-αv expression in lung, one-way ANOVA ([4]; pooled ATN-161-treated mice): not significant | ATP production (cell viability) in infected cells [5]: increased ATP production in infected cells | treatment concentration at which viability increase was most apparent [5]: 10 µM | neuro-inflammation (neuro-inflammation): reduced neuro-inflammation | PHEV infection and increase in integrin α5β1 expression in vivo [6]: inhibited | cytopathic effect, phase contrast microscopy [7]: decreased evidence of cytopathic effect | number of responders (SARS-CoV-2 [8]; ATN-161-2 hr group): 3 | number of responders (SARS-CoV-2 [8]; ATN-161-48 hr group): 2 | number of responders (SARS-CoV-2 [8]; ATN-161-daily group (2, 24, 48 h)): 3 | Genomic N viral load in lungs, pooled ATN-161 groups vs SARS-CoV-2+Saline (SARS-CoV-2 [8]; in vivo): lower Genomic N viral load in lungs | Genomic-N lung viral load, single ATN-161 groups vs SARS-CoV-2+Saline (SARS-CoV-2 [8]; in vivo): significant group differences were not detected | Sgm-N lung viral load, ATN-161 responders vs SARS-CoV-2+Saline (SARS-CoV-2 [8]; in vivo): significantly lower Sgm-N lung viral loads | Sgm-N lung viral load, pooled ATN-161 groups vs SARS-CoV-2+Saline (SARS-CoV-2 [8]; in vivo): reduced Sgm-N viral load | genomic lung viral load, ATN-161 responders vs SARS-CoV-2+Saline (SARS-CoV-2 [8]; in vivo): significantly lower genomic lung viral loads | α5 mRNA expression in lungs, infected mice compared to mice given ATN-161 (integrin α5 mRNA): significantly higher α5 mRNA expression
